Values of other authors, collected in patent US20130337094A1, “Nutritional Supplement Comprising Nut and Seed Oil Composition” (Dr. Baker Says, Inc., priority 2011, published 2013).
At least one compound was matched to its structure with a doubt left.

Details: patients with retinitis pigmentosa beginning vitamin A therapy

SMILES: CC/C=C\C/C=C\C/C=C\C/C=C\C/C=C\C/C=C\CCC(=O)O [DHA, docosahexaenoic acid]
- Course of disease: slowed the course of disease
